Test results from patent US20190321455A1.
These are yes or no findings as the source states them, for the method shown. In cells and extracts the contact can be indirect. Some binding calls cover weakened binding; strength is not graded here. Sequences can lack the tags named with a protein.

Protein sequences, listed by entry. Tags and fused reporters are not part of them.
UniProt Q15366: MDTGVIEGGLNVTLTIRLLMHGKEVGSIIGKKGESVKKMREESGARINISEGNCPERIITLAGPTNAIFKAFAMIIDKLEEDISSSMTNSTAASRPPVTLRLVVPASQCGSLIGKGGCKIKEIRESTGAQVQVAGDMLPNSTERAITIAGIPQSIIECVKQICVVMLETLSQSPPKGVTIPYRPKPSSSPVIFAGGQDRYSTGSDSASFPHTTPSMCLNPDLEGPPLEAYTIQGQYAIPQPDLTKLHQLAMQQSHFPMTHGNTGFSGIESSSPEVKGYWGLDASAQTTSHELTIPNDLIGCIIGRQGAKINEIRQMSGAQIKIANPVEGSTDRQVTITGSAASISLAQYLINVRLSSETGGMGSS

Molecular target: GST-PCBP2 (full-length poly(rC)-binding protein 2 expressed from a plasmid in 293T cells) (UniProt Q15366)
Test: co-IP of EPRS domain constructs with PCBP2 in 293T cells

binding: binds
B1: EPRS N-terminal domain (aa 1-196; GST-like domain and linker region L1), expressed in 293T cells (protein)
chain: MATLSLTVNSGDPPLGALLAVEHVKDDVSISVEEGKENILHVSENVIFTDVNSILRYLARVATTAGLYGSNLMEHTEIDHWLEFSATKLSSCDSFTSTINELNHCLSLRTYLVGNSLSLADLCVWATLKGNAAWQEQLKQKKAPVHVKRWFGFLEAQQAFQSVGTKWDVSTTKARVAPEKKQDVGKFVELPGAEMG
